Test results as given in PMC10643132.
These are yes or no findings as the source states them, for the method shown. Some binding calls cover weakened binding; strength is not graded here.

Molecular target: GST–UbV^CDH1
Assay: pull-down; GST–UbV^CDH1 or GST–Ub with CDH1 or CDC20, GST pulldown, Coomassie-stained SDS–PAGE; n = 3; both purified

Substance: CDH1 (from UniProt Q9UM11 1-496)
- binding: binds
